# Reference: PMC7926356
# Amino acid sequences for entries named in this document (tags omitted).
# UniProt P19634: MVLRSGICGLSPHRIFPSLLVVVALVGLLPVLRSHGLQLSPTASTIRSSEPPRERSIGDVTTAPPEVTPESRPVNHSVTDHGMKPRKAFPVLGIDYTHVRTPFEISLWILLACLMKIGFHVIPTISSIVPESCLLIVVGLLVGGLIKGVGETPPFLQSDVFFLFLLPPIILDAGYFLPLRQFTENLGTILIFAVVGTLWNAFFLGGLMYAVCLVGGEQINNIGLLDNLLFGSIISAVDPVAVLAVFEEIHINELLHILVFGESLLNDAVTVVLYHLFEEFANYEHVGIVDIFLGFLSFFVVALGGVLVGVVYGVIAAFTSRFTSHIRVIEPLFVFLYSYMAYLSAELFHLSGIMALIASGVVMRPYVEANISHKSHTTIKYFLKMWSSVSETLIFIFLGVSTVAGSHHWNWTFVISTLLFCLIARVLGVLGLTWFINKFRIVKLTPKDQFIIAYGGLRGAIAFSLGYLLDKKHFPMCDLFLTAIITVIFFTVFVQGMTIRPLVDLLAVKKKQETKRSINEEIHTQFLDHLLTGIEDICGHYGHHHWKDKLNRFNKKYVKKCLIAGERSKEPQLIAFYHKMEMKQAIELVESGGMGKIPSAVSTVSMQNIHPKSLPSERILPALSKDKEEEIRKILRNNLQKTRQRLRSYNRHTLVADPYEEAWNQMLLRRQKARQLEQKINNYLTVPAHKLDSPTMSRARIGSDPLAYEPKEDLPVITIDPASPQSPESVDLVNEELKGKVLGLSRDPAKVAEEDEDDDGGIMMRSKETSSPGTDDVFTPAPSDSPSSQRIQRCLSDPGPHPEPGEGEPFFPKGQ
# UniProt P15311: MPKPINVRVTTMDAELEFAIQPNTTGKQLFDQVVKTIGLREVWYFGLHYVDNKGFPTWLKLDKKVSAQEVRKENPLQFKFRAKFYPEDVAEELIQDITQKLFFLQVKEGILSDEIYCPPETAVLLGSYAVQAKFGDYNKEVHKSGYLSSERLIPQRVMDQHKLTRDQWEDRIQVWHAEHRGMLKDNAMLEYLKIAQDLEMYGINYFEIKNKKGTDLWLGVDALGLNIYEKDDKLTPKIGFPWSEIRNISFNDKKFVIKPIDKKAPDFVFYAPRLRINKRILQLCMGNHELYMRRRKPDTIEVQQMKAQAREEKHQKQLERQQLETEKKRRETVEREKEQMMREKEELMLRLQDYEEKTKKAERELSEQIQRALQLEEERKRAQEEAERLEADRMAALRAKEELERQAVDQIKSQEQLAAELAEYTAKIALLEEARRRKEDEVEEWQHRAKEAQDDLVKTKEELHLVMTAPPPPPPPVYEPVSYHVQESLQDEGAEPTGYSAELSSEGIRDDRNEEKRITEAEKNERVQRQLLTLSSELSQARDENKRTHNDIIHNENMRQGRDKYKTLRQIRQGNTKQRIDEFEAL
# UniProt Q13418: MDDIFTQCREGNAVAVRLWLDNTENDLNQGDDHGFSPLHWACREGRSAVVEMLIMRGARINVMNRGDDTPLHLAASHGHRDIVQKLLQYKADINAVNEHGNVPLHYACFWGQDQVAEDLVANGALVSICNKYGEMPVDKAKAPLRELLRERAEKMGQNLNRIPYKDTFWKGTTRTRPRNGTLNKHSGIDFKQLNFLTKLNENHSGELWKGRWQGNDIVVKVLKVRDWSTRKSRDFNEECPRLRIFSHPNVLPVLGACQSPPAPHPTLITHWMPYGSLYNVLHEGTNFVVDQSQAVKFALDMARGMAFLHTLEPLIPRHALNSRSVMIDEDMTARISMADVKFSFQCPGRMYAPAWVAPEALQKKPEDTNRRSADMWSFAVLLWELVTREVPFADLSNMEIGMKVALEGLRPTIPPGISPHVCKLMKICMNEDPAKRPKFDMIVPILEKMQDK
# These are yes or no findings as the source states them, for the method shown. Binding seen in cells or lysates may run through a third protein. Some results given as binding are weak or reduced against the parent protein; the word gives no strength.
# Columns and labels:
# [1] = biological target: Na+/H+ exchanger type 1 (human (endogenous in MDA-MB-231 and PC-3)) (UniProt P19634); assay: proximity ligation; in situ PLA (Duolink II Kit) of endogenous proteins in fixed MDA-MB-231 and PC-3 cells cultured 6 h on DQ Green-BSA Matrigel; detects interactions within 40 nm; read by epifluorescence and confocal microscopy
# [2] = biological target: ezrin phosphorylated at T567 (human (endogenous in MDA-MB-231 and PC-3)) (UniProt P15311); assay: as above
substance,measurement,setting,value
integrin-linked kinase (from UniProt Q13418 1-452),binding,[1],binds
same,binding,[2],binds
